From article PMC13065327

B1: Sli15 (protein, UniProt P38283 1-698)
chain: MDWAIKAARKKTQRKPGSTRSIIETLDDLNNLTTDAHSEINQRLYESSEWLRNNVYMNTLKYEDKKMEESLISPENTHNKMDVEFPKMKGEYELSNSQNDAAKDVTKTPRNGLHNDKSITPKSLRRKEVTEGMNRFSIHDTNKSPVEPLNSVKVDANESEKSSPWSPYKVEKVLRESSKTSESPINTKRFDNQTWAAKEEMENEPILQALKKAESVKVKPPPNSGIARSQRRSNMFVPLPNKDPLIIQHIPPTKSSGSIPKVRTVKESPIAFKKKSTINSPAIRAVENSDTAGSTKASSVFDRLSSIPTKSFENKISRGNVGHKYSSSSIDLTGSPMKKVSQKFKSINSTDTDMQEALRDIFSVKNKITKNNSPKGKNSRKSSIPRFDKTSLKLTTHKKLAIIAEQKKKSKHSSDVHKTGSRPHSISPTKISVDSSSPSKEVKNYYQSPVRGYLRPTKASISPNKNKNLTTSQTPHRLKIKEKTLRKLSPNIADISKPESRKSKNYRLTNLQLLPPAEAERDDLKKKFDKRLSGIMRSQQEHHRRKQEKQKRMSHLEQDLKKQTSFSNDYKDIRLKESLAPFDNHVRDTINKNTAFSTDNILATINTVDHREIIGNVTPKIASVNDSLPEINTDSEDEASVTLAAWAKSPYLQEQLIRQQDINPQTIFGPIPPLHTDEIFPNPRLNRLKPRQIVPKRS
B2: Lrs4 (protein, UniProt Q04087 1-347)
chain: MTTLLQLLSNYYKAKLDSERIYNEYVQSQYEFASLDKLNNNKGDPKKVVDETLFLQRQIAQLNKQLQLSFQENEKLLSVQKNQKALYQSKLSSKDAFIDDLKLKLKVEQISVDKHNKERTPSTGRDEQQRNSKAAHTSKPTIHLLSPIVNRDKPNNQTNDRGGNDPDSPTSQRRSRGLRSLLSSGKNTIFDSISKNLDDEINENAHIRNDTTSSKIAGKSPSRLSALQKSPELRKERNNMILKEHILRSKDDQNITSSRKLDNIELSSIGDSTAMTSRSSTVNANDILGNEENDGITKLKRVNKLTSSPVKRDCSTNKKRKLTKQRIATLPNSDEELSNNLNVDEFV
B3: Slk19 (protein, UniProt Q08581 1-821)
chain: MNEVPTTPVRLILGQAQQREQNSENCSQERNPRTFNSEPDSSFNSPGSSQFVIHPHEPLEKEKDEKQDLDRSIDYGRSSALNNKNNANPLENIDINKMFDDKKSDSGTNDDKGGASTSDKHVLALNYSPIRVEMNSSEKRSDKNVDVDENDKEGSHINKKLKLQLESVPDLKQSSTKDIINDKEEIMSSPMAIDMIETNISPNKFIINDGVERNDSFNINTDTLKLENDINEKQQEEDFIKSNSNNVVNIDNAYKEKEDEENDITNSHINRLTPLYETSARESNSNEEGRNDYDDDNQLDIRHDNFQIVAKRNEELTDQIYHLNQMLNSLISKNESLSFQYEKLNKNHQLLIDLTNEKLDKLNTERESDIAKVEKFKKRIKELNTEIKVLNSNQKILQEKFDASITEVNHIKGEHENTVNTLQQNEKILNDKNVELENMKAELKGNNDKLSEYETTLNDLNSRIVQLNDKIESTDIVLKSKENELDNLKLSLKETLSISKDFNDSDLIGQINELISTKNNLQQKMDDLNNLNDDNLKVVQDKLIKNEETLKLKEAEIDSLNSEMDELKKQITSKDDEFKMWQSKYETVEDEAKIRNAEVTELNGDIEDLKESKLHLEETITELENKVHKLENECELEKQKFEKTSLELESLQLKNSNIQAEHIKELENLHENLISLQNELKISSDRITTLTKENEVLMEQNNNNNNSVTLSNDQKDRDDEKIKSLGKQVQDWKEKYEAKEKDTNKRLKLLAEDLYIQYSSKHEQKVKLLKKGYENKYQNKFDQLNLENKTLSEEIEQLNKQLSSEREEKQELLKLLENEKK
B4: Bik1 (protein, UniProt P11709 1-440)
chain: MDRYQRKIGCFIQIPNLGRGQLKYVGPVDTKAGMFAGVDLLANIGKNDGSFMGKKYFQTEYPQSGLFIQLQKVASLIEKASISQTSRRTTMEPLSIPKNRSIVRLTNQFSPMDDPKSPTPMRSFRITSRHSGNQQSMDQEASDHHQQQEFGYDNREDRMEVDSILSSDRKANHNTTSDWKPDNGHMNDLNSSEVTIELREAQLTIEKLQRKQLHYKRLLDDQRMVLEEVQPTFDRYEATIQEREKEIDHLKQQLELERRQQAKQKQFFDAENEQLLAVVSQLHEEIKENEERNLSHNQPTGANEDVELLKKQLEQLRNIEDQFELHKTKWAKEREQLKMHNDSLSKEYQNLSKELFLTKPQDSSSEEVASLTKKLEEANEKIKQLEQAQAQTAVESLPIFDPPAPVDTTAGRQQWCEHCDTMGHNTAECPHHNPDNQQFF
B5: Cin8 (protein, UniProt P27895 1-1000)
chain: MPAENQNTGQDRSSNSISKNGNSQVGCHTVPNEELNITVAVRCRGRNEREISMKSSVVVNVPDITGSKEISINTTGDTGITAQMNAKRYTVDKVFGPGASQDLIFDEVAGPLFQDFIKGYNCTVLVYGMTSTGKTYTMTGDEKLYNGELSDAAGIIPRVLLKLFDTLELQQNDYVVKCSFIELYNEELKDLLDSNSNGSSNTGFDGQFMKKLRIFDSSTANNTTSNSASSSRSNSRNSSPRSLNDLTPKAALLRKRLRTKSLPNTIKQQYQQQQAVNSRNNSSSNSGSTTNNASSNTNTNNGQRSSMAPNDQTNGIYIQNLQEFHITNAMEGLNLLQKGLKHRQVASTKMNDFSSRSHTIFTITLYKKHQDELFRISKMNLVDLAGSENINRSGALNQRAKEAGSINQSLLTLGRVINALVDKSGHIPFRESKLTRLLQDSLGGNTKTALIATISPAKVTSEETCSTLEYASKAKNIKNKPQLGSFIMKDILVKNITMELAKIKSDLLSTKSKEGIYMSQDHYKNLNSDLESYKNEVQECKREIESLTSKNALLVKDKLKSKETIQSQNCQIESLKTTIDHLRAQLDKQHKTEIEISDFNNKLQKLTEVMQMALHDYKKRELDLNQKFEMHITKEIKKLKSTLFLQLNTMQQESILQETNIQPNLDMIKNEVLTLMRTMQEKAELMYKDCVKKILNESPKFFNVVIEKIDIIRVDFQKFYKNIAENLSDISEENNNMKQYLKNHFFKNNHQELLNRHVDSTYENIEKRTNEFVENFKKVLNDHLDENKKLIMQNLTTATSAVIDQEMDLFEPKRVKWENSFDLINDCDSMNNEFYNSMAATLSQIKSTVDTSSNSMNESISVMKGQVEESENAISLLKNNTKFNDQFEQLINKHNMLKDNIKNSITSTHSHITNVDDIYNTIENIMKNYGNKENATKDEMIENILKEIPNLSKKMPLRLSNINSNSVQSVISPKKHAIEDENKSSENVDNEGSRKMLKIE
B6: Bir1 (protein, UniProt P47134 1-954)
chain: MDGQIDKMEKRYSMTKLENRLRTFQDGVALEKKKLKWSFKVIPYQAMAKLGFYFDPVIDPKTSKLKKDSVRCCYCHRQTYNVRDCRSKRKDVLETLSNIMRQHLTVTDNKQVCLLIYLRNKLLTDYSFHMGVSDWKNDKYFSNPDDENVINLRKFTFQDNWPHSGSQNEHPLGIEKMVNAGLMRYDSSIEGLGDPSMDKTLMNDTCYCIYCKQLLQGWSINDDPMSRHYKVSQNGNCYFFQTRNRFERIKNDNDSITKNCEVSPTLGENGKREVINTKTASQRQCPLFESPPSSTGPQLDDYNEKTDISVIQHNISVLDGAQGENVKRNSVEEKEQINMENGSTTLEEGNINRDVLADKKEVISTPTAKEIKRPNVQLTQSSSPIKKKRKFKRISPRKIFDEEDSEHSLNNNSANGDNKDKDLVIDFTSHIIKNRDVGRKNAILDDSTDEFSFSNQGHNTFDIPIPTSSHLLKGIDSDNDNVIREDDTGINTDTKGASSKHEKFSVNSEEDLNFSEVKLTGRDSSTNILIRTQIVDQNLGDIDRDKVPNGGSPEVPKTHELIRDNSEKREAQNGEFRHQKDSTVRQSPDILHSNKSGDNSSNITAIPKEEQRRGNSKTSSIPADIHPKPRKNLQEPRSLSISGKVVPTERKLDNINIDLNFSASDFSPSSQSEQSSKSSSVISTPVASPKINLTRSLHAVKELSGLKKETDDGKYFTNKQETIKILEDVSVKNETPNNEMLLFETGTPIASQENKSRKLFDEEFSGKELDIPIDSSTVEIKKVIKPEFEPVPSVARNLVSGTSSYPRNSRLEEQRKETSTSLADNSKKGSSFNEGNNEKEPNAAEWFKIDENRHLVKNYFHDLLKYINNNDATLANDKDGDLAFLIKQMPAEELDMTFNNWVNLKVQSIKREFIDDCDKKLDILRRDYYTATNFIETLEDDNQLIDIAKKMGIL
B7: Mps1 (enzyme, UniProt P54199 1-764)
chain: MSTNSFHDYVDLKSRTNTRQFSDDEEFTTPPKLSNFGSALLSHTEKTSASEILSSHNNDKIANRLEEMDRSSSRSHPPPSMGNLTSGHTSTSSHSTLFGRYLRNNHQTSMTTMNTSDIEINVGNSLDKSFERIRNLRQNMKEDITAKYAERRSKRFLISNRTTKLGPAKRAMTLTNIFDEDVPNSPNQPINARETVELPLEDSHQTNFKETKRNTDYDSIDFGDLNPIQYIKKHNLPTSDLPLISQIYFDKQREENRQAALRKHSSRELLYKSRSSSSSLSSNNLLANKDNSITSNNGSQPRRKVSTGSSSSKSSIEIRRALKENIDTSNNSNFNSPIHKIYKGISRNKDSDSEKREVLRNISINANHADNLLQQENKRLKRSLDDAITNENINSKNLEVFYHRPAPKPPVTKKVEIVEPAKSASLSNNRNIITVNDSQYEKIELLGRGGSSRVYKVKGSGNRVYALKRVSFDAFDDSSIDGFKGEIELLEKLKDQKRVIQLLDYEMGDGLLYLIMECGDHDLSQILNQRSGMPLDFNFVRFYTKEMLLCIKVVHDAGIVHSDLKPANFVLVKGILKIIDFGIANAVPEHTVNIYRETQIGTPNYMAPEALVAMNYTQNSENQHEGNKWKVGRPSDMWSCGCIIYQMIYGKPPYGSFQGQNRLLAIMNPDVKIPFPEHTSNNEKIPKSAIELMKACLYRNPDKRWTVDKVLSSTFLQPFMISGSIMEDLIRNAVRYGSEKPHISQDDLNDVVDTVLRKFADYKI

target: T1, Dsn1-6His-3FLAG (S. cerevisiae) (UniProt P40568); experiment: affinity purification with mass spectrometry; anti-FLAG antibody on Protein G Dynabeads, Dsn1-6His-3FLAG from lysates of SK1 cells at mitotic metaphase, meiotic prophase, metaphase I and metaphase II (SynSAC, 250 uM ABA); BH0.15 buffer (150 mM KCl, 25 mM HEPES-KOH pH 8.0, 2 mM MgCl2, 0.1% NP-40), 3 hr at 4 C; DIA-MS of eluates, 95% phospho-enriched; no tag control
T1 sequence: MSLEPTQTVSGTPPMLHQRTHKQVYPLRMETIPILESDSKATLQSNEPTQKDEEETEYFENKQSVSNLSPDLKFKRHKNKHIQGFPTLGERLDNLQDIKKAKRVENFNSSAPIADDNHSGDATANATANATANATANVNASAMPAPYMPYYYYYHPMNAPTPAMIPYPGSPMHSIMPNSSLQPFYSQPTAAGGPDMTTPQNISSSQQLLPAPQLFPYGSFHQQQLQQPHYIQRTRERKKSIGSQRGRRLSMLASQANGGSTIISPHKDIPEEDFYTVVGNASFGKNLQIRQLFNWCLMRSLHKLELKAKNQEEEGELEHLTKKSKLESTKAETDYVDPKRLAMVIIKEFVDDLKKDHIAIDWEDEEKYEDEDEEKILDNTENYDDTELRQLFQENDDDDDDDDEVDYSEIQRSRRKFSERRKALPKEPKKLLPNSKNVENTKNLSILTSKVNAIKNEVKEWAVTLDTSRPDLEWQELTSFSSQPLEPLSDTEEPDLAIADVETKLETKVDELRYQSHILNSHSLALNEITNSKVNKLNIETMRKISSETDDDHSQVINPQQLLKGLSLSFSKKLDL

binding, binds:
B1
B2
B3
B4
B5
B6
B7

Results are given in words; binding and its absence hold for the method and conditions named. Binding seen in cells or lysates may run through a third protein. A yes stands for co-enrichment or nearness to the bait. Other partners may have been found. Where a sequence is shown, tags or fusion partners need not be part of it.
